# Source: the supplement of paper PMC8728848
# Some of the results follow.
# Experiments:
# Test in all cases: glycan array binding signal (z-score within array); higher = stronger binding
# Conditions in all cases: glycan notation: IUPAC condensed, linker removed
# [1] = target: Neu5Ac(a2-3)Gal6S(b1-4)[Fuc(a1-3)]GlcNAc
# How it was run: (§1)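 Glycan array data came from 3228 arrays in the Consortium for Functional Glycomics database, and only arrays with an available protein sequence were kept. Glycan names were put into IUPAC-condensed notation, and columns mapping to the same glycan were averaged. The binding signal is a within-array Z-score, averaged across arrays of one protein sequence run at different concentrations or buffers and across linkers. A negative Z-score can be read as non-binding.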
# [2] = target: Neu5Ac(a2-3)GalNAc
# How it was run: as §1
# [3] = target: Neu5Ac(a2-3)GalNAc(b1-4)GlcNAc
# How it was run: as §1
# [4] = target: Neu5Ac(a2-3)[GalNAc(b1-4)]Gal(b1-4)Glc
# How it was run: as §1
# [5] = target: Neu5Ac(a2-3)[GalNAc(b1-4)]Gal(b1-4)GlcNAc
# How it was run: as §1
# [6] = target: Neu5Ac(a2-3)[GalNAc(b1-4)]Gal(b1-4)GlcNAc(b1-3)GalNAc
# How it was run: as §1
# [7] = target: Neu5Ac(a2-3)[Neu5Ac(a2-6)]GalNAc
# How it was run: as §1
# [8] = target: Neu5Ac(a2-6)Gal
# How it was run: as §1
# [9] = target: Neu5Ac(a2-6)Gal(b1-3)GlcNAc(b1-3)[Gal(b1-4)GlcNAc(b1-6)]Gal(b1-4)Glc
# How it was run: as §1
# [10] = target: Neu5Ac(a2-6)Gal(b1-4)Glc
# How it was run: as §1
# [11] = target: Neu5Ac(a2-6)Gal(b1-4)GlcNAc
# How it was run: as §1
# [12] = target: Neu5Ac(a2-6)Gal(b1-4)GlcNAc(b1-2)Man
# How it was run: as §1
# [13] = target: Neu5Ac(a2-6)Gal(b1-4)GlcNAc(b1-2)Man(a1-3)Man(b1-4)GlcNAc(b1-4)GlcNAc
# How it was run: as §1
# [14] = target: Neu5Ac(a2-6)Gal(b1-4)GlcNAc(b1-2)Man(a1-3)[Gal(b1-4)GlcNAc(b1-2)Man(a1-6)]Man(b1-4)GlcNAc(b1-4)GlcNAc
# How it was run: as §1
# [15] = target: Neu5Ac(a2-6)Gal(b1-4)GlcNAc(b1-2)Man(a1-3)[GlcNAc(b1-2)Man(a1-6)]Man(b1-4)GlcNAc(b1-4)GlcNAc
# How it was run: as §1
# [16] = target: Neu5Ac(a2-6)Gal(b1-4)GlcNAc(b1-2)Man(a1-3)[GlcNAc(b1-4)][Neu5Ac(a2-6)Gal(b1-4)GlcNAc(b1-2)Man(a1-6)]Man(b1-4)GlcNAc(b1-4)GlcNAc
# How it was run: as §1
# [17] = target: Neu5Ac(a2-6)Gal(b1-4)GlcNAc(b1-2)Man(a1-3)[Man(a1-6)]Man(b1-4)GlcNAc(b1-4)GlcNAc
# How it was run: as §1
# [18] = target: Neu5Ac(a2-6)Gal(b1-4)GlcNAc(b1-2)Man(a1-3)[Neu5Ac(a2-3)Gal(b1-4)GlcNAc(b1-2)Man(a1-6)]Man(b1-4)GlcNAc(b1-4)GlcNAc
# How it was run: as §1
# [19] = target: Neu5Ac(a2-6)Gal(b1-4)GlcNAc(b1-2)Man(a1-3)[Neu5Ac(a2-6)Gal(b1-4)GlcNAc(b1-2)Man(a1-6)]Man(b1-4)GlcNAc(b1-4)GlcNAc
# How it was run: as §1
# [20] = target: Neu5Ac(a2-6)Gal(b1-4)GlcNAc(b1-2)Man(a1-3)[Neu5Ac(a2-6)Gal(b1-4)GlcNAc(b1-2)Man(a1-6)]Man(b1-4)GlcNAc(b1-4)[Fuc(a1-6)]GlcNAc
# How it was run: as §1
# [21] = target: Neu5Ac(a2-6)Gal(b1-4)GlcNAc(b1-2)Man(a1-6)Man(b1-4)GlcNAc(b1-4)GlcNAc
# How it was run: as §1
# [22] = target: Neu5Ac(a2-6)Gal(b1-4)GlcNAc(b1-2)Man(a1-6)[Gal(b1-4)GlcNAc(b1-2)Man(a1-3)]Man(b1-4)GlcNAc(b1-4)GlcNAc
# How it was run: as §1
# [23] = target: Neu5Ac(a2-6)Gal(b1-4)GlcNAc(b1-2)Man(a1-6)[GlcNAc(b1-2)Man(a1-3)]Man(b1-4)GlcNAc(b1-4)GlcNAc
# How it was run: as §1
# [24] = target: Neu5Ac(a2-6)Gal(b1-4)GlcNAc(b1-2)Man(a1-6)[Man(a1-3)]Man(b1-4)GlcNAc(b1-4)GlcNAc
# How it was run: as §1
# [25] = target: Neu5Ac(a2-6)Gal(b1-4)GlcNAc(b1-2)[Neu5Ac(a2-6)Gal(b1-4)GlcNAc(b1-4)]Man(a1-3)[GlcNAc(b1-4)][Neu5Ac(a2-6)Gal(b1-4)GlcNAc(b1-2)[Neu5Ac(a2-6)Gal(b1-4)GlcNAc(b1-6)]Man(a1-6)]Man(b1-4)GlcNAc(b1-4)GlcNAc
# How it was run: as §1
# [26] = target: Neu5Ac(a2-6)Gal(b1-4)GlcNAc(b1-2)[Neu5Ac(a2-6)Gal(b1-4)GlcNAc(b1-4)]Man(a1-3)[GlcNAc(b1-4)][Neu5Ac(a2-6)Gal(b1-4)GlcNAc(b1-4)Man(a1-6)]Man(b1-4)GlcNAc(b1-4)GlcNAc
# How it was run: as §1
# [27] = target: Neu5Ac(a2-6)Gal(b1-4)GlcNAc(b1-2)[Neu5Ac(a2-6)Gal(b1-4)GlcNAc(b1-6)]Man(a1-6)[Neu5Ac(a2-6)Gal(b1-4)GlcNAc(b1-2)Man(a1-3)][GlcNAc(b1-4)]Man(b1-4)GlcNAc(b1-4)GlcNAc
# How it was run: as §1
# [28] = target: Neu5Ac(a2-6)Gal(b1-4)GlcNAc(b1-3)Gal(b1-3)GlcNAc
# How it was run: as §1
# [29] = target: Neu5Ac(a2-6)Gal(b1-4)GlcNAc(b1-3)Gal(b1-4)GlcNAc
# How it was run: as §1
# [30] = target: Neu5Ac(a2-6)Gal(b1-4)GlcNAc(b1-3)Gal(b1-4)GlcNAc(b1-2)Man(a1-3)[Neu5Ac(a2-6)Gal(b1-4)GlcNAc(b1-3)Gal(b1-4)GlcNAc(b1-2)Man(a1-6)]GalNAc
# How it was run: as §1
# [31] = target: Neu5Ac(a2-6)Gal(b1-4)GlcNAc(b1-3)Gal(b1-4)GlcNAc(b1-3)Gal(b1-4)GlcNAc
# How it was run: as §1
# [32] = target: Neu5Ac(a2-6)Gal(b1-4)GlcNAc(b1-3)Gal(b1-4)GlcNAc(b1-3)Gal(b1-4)GlcNAc(b1-2)Man(a1-3)[Neu5Ac(a2-6)Gal(b1-4)GlcNAc(b1-3)Gal(b1-4)GlcNAc(b1-3)Gal(b1-4)GlcNAc(b1-2)Man(a1-6)]GalNAc
# How it was run: as §1
# [33] = target: Neu5Ac(a2-6)Gal(b1-4)GlcNAc(b1-3)Gal(b1-4)GlcNAc(b1-3)GalNAc
# How it was run: as §1
# [34] = target: Neu5Ac(a2-6)Gal(b1-4)GlcNAc(b1-3)Gal(b1-4)GlcNAc(b1-3)[Neu5Ac(a2-6)Gal(b1-4)GlcNAc(b1-3)Gal(b1-4)GlcNAc(b1-6)]GalNAc
# How it was run: as §1
# [35] = target: Neu5Ac(a2-6)Gal(b1-4)GlcNAc(b1-3)Gal(b1-4)GlcNAc(b1-6)[Gal(b1-3)]GalNAc
# How it was run: as §1
# [36] = target: Neu5Ac(a2-6)Gal(b1-4)GlcNAc(b1-3)Gal(b1-4)[Fuc(a1-3)]GlcNAc(b1-3)Gal(b1-4)[Fuc(a1-3)]GlcNAc
# How it was run: as §1
# [37] = target: Neu5Ac(a2-6)Gal(b1-4)GlcNAc(b1-3)GalNAc
# How it was run: as §1
binder,measurement,setting,value
Epa19 (Candida glabrata) (protein) MGSSHHHHHHSSGLVPRGSHMASSKDPTRFPIGCSPQVLKTQPGLAVKLYSYGHPVPGCSYITYQYPDFPRSGYKKERKLADITGVNGKIDIDLKPNDPCRVLTGHLPSNYNYPDTLTYTNFTMILYGYFQPKVTGYHTFNLEADDLLFMNLGAGNAFDCCKAESTLDNFGNYQSYSLWGSDYAKANITVFLVSGVYYPIRLFYVNRDNNAVIDFSFTTEFDKEKVHDFTSYFFSASDGEQCPGSV,glycan array binding signal (z-score),[1],0.812
same,glycan array binding signal (z-score),[2],-0.326
same,glycan array binding signal (z-score),[3],-0.055
same,glycan array binding signal (z-score),[4],0.603
same,glycan array binding signal (z-score),[5],-0.517
same,glycan array binding signal (z-score),[6],-0.115
same,glycan array binding signal (z-score),[7],0.022
same,glycan array binding signal (z-score),[8],-0.185
same,glycan array binding signal (z-score),[9],-0.876
same,glycan array binding signal (z-score),[10],-0.768
same,glycan array binding signal (z-score),[11],-0.869
same,glycan array binding signal (z-score),[12],1.19
same,glycan array binding signal (z-score),[13],0.137
same,glycan array binding signal (z-score),[14],-0.545
same,glycan array binding signal (z-score),[15],-0.28
same,glycan array binding signal (z-score),[16],-0.825
same,glycan array binding signal (z-score),[17],-0.441
same,glycan array binding signal (z-score),[18],-0.068
same,glycan array binding signal (z-score),[19],-0.211
same,glycan array binding signal (z-score),[20],-0.142
same,glycan array binding signal (z-score),[21],0.781
same,glycan array binding signal (z-score),[22],-1.28
same,glycan array binding signal (z-score),[23],-0.007
same,glycan array binding signal (z-score),[24],0.827
same,glycan array binding signal (z-score),[25],-0.801
same,glycan array binding signal (z-score),[26],-0.148
same,glycan array binding signal (z-score),[27],-1.09
same,glycan array binding signal (z-score),[28],-0.227
same,glycan array binding signal (z-score),[29],-1.3
same,glycan array binding signal (z-score),[30],1.24
same,glycan array binding signal (z-score),[31],0.355
same,glycan array binding signal (z-score),[32],3.53
same,glycan array binding signal (z-score),[33],-0.618
same,glycan array binding signal (z-score),[34],0.576
same,glycan array binding signal (z-score),[35],-0.419
same,glycan array binding signal (z-score),[36],0.107
same,glycan array binding signal (z-score),[37],-0.192
